For assay [1], the target named is JEV NS5-FLAG (nonstructural protein 5, FLAG-tagged) (Japanese encephalitis virus, strain RP9) (UniProt P27395). The assay is described as follows: co-IP.
The target of assay [2] is ZNF33B-HA (zinc finger protein 33B, HA-tagged) (UniProt Q06732). The assay is described as follows: co-IP.
Assay [3] has as its target PML-HA (promyelocytic leukemia protein, HA-tagged) (UniProt P29590). Nature of the assay: co-IP; ZNF33B with PML (Fig. S8A) and with UBC9 (Fig. S8C); legend not shown, constructs and antibody of the precipitation not told.
The target of assay [4] is JEV NS5-FLAG (nonstructural protein 5, FLAG-tagged) (Japanese encephalitis virus, strain RP9) (UniProt P27395). The assay is described as follows: co-IP. This is another data set of the same source.

The chains behind the UniProt entries cited, without tags or fusion partners. Where a name states a change or a piece, a line headed by the entry shows the natural chain unless it says otherwise.
UniProt Q06732, whole entry: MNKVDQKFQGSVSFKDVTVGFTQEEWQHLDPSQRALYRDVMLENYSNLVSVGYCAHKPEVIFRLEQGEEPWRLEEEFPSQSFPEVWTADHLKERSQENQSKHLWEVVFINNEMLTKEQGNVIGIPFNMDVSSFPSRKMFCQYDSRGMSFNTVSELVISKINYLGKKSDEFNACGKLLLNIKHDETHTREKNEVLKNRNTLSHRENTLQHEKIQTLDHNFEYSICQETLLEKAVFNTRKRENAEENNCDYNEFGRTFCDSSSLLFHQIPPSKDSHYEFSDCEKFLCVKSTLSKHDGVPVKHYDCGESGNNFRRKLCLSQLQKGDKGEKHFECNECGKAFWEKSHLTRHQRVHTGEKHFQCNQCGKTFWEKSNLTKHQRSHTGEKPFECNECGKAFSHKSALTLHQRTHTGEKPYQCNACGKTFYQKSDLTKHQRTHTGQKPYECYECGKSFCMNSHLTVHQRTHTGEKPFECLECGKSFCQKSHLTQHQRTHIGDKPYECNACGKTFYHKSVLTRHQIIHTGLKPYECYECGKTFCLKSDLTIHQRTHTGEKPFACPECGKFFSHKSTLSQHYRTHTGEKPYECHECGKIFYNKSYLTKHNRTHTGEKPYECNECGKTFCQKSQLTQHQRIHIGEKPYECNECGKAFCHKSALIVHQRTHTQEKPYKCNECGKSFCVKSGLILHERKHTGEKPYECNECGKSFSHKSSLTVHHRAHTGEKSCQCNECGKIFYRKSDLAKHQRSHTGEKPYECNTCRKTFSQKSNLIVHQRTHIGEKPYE
UniProt P29590, whole entry: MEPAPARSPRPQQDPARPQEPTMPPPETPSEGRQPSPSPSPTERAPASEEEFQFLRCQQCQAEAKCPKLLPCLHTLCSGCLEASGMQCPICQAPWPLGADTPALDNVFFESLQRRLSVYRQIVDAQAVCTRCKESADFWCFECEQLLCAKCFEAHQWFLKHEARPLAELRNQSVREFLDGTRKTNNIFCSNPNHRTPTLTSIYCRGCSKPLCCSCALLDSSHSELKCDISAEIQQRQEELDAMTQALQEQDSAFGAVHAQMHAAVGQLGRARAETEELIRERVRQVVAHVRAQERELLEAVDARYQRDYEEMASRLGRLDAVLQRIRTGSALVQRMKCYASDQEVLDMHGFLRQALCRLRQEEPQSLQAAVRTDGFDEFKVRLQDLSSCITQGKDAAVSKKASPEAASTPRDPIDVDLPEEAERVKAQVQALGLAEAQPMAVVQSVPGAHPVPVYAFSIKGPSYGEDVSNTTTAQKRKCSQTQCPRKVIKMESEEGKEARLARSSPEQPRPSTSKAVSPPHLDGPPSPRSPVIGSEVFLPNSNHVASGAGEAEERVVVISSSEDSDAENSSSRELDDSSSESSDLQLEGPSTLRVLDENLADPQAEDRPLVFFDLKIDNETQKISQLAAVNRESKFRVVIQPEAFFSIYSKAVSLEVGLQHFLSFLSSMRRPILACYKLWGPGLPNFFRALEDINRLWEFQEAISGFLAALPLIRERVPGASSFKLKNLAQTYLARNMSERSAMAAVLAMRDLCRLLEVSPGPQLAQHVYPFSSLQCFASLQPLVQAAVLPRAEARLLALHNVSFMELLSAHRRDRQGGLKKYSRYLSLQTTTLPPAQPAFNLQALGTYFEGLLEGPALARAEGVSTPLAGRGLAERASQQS
UniProt P04792, whole entry: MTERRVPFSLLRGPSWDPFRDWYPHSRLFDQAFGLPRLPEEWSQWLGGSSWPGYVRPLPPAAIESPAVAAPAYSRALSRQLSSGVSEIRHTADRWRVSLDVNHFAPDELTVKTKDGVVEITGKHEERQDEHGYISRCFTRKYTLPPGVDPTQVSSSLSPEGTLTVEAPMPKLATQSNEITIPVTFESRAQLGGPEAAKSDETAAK

For 6 molecules, binding results are on record in publication PMC12548438.

Where two headings read alike, the source gives them in different places. No constants are given. Whether binding was seen depends on the method and setting. Binding seen in cells or lysates may run through a third protein. Some binding calls cover weakened binding; strength is not graded here. For part of these data: Tags and fused reporters may be left off the sequences shown.

On to “HSPB1-HA (Heat Shock Protein Beta-1, HA-tagged) (from UniProt P04792 1-205)”, for which, in assay [1], the binding entry is reported as “binds”. Consider “JEV NS5-FLAG (nonstructural protein 5, FLAG-tagged) (from UniProt P27395)”, for which the binding result in assay [2] is recorded as “binds”. As for “ZNF33B (construct of the supplementary co-IPs, Fig. S3 and Fig. S8; tag not shown) (from UniProt Q06732 1-778)”, the binding result in assay [3] is “binds”. As to “ZNF33B-HA (zinc finger protein 33B, HA-tagged) (from UniProt Q06732 1-778)”, in assay [1], the binding result is on record as “binds”. Still for that read-out and setting: with “ZNF33B-MYC (zinc finger protein 33B, MYC-tagged) (from UniProt Q06732 1-778)” the entry was “binds”.

B1: HSPB8-HA (heat shock protein beta-8, HA-tagged) (protein, UniProt Q9UJY1 1-196)
chain: MADGQMPFSCHYPSRLRRDPFRDSPLSSRLLDDGFGMDPFPDDLTASWPDWALPRLSSAWPGTLRSGMVPRGPTATARFGVPAEGRTPPPFPGEPWKVCVNVHSFKPEELMVKTKDGYVEVSGKHEEKQQEGGIVSKNFTKKIQLPAEVDPVTVFASLSPEGLLIIEAPQVPPYSTFGESSFNNELPQDSQEVTCT
For the molecule B1, the binding result in assay [4] is on record as “binds”.
